# No constants are given. Whether binding was seen depends on the method and setting. Binding calls can cover weak binding; strength is not graded here.
# Protein sequences, listed by entry. Tags and fused reporters are not part of them. Lines headed by an entry give the natural chain unless they say otherwise; changes in a name come on top. Residues count along the entry.
# UniProt P07333, residues 20-972: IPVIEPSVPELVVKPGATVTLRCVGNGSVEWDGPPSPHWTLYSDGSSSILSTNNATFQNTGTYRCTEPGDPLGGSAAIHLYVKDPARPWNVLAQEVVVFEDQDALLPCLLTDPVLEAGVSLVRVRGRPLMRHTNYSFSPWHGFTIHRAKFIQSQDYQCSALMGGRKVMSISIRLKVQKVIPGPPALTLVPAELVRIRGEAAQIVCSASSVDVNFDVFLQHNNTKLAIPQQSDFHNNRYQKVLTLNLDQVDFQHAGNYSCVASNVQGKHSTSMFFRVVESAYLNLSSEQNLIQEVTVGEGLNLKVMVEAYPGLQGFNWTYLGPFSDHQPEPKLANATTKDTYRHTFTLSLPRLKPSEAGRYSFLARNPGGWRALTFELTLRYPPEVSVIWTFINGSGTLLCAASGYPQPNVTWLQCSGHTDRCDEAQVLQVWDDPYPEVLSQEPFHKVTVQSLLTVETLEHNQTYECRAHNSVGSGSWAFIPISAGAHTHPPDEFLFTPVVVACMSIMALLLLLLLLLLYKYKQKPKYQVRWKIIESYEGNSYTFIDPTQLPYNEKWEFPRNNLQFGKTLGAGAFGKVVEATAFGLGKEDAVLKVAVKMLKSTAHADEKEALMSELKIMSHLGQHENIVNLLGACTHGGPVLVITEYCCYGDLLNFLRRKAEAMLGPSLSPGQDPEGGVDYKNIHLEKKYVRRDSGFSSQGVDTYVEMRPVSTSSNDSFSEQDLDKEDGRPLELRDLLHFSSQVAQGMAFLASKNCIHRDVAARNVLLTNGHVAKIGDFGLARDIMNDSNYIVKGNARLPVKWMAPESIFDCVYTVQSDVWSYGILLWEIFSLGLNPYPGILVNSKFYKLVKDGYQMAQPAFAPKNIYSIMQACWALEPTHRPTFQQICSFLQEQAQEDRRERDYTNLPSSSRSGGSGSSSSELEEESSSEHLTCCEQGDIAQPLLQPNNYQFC
# UniProt P09603: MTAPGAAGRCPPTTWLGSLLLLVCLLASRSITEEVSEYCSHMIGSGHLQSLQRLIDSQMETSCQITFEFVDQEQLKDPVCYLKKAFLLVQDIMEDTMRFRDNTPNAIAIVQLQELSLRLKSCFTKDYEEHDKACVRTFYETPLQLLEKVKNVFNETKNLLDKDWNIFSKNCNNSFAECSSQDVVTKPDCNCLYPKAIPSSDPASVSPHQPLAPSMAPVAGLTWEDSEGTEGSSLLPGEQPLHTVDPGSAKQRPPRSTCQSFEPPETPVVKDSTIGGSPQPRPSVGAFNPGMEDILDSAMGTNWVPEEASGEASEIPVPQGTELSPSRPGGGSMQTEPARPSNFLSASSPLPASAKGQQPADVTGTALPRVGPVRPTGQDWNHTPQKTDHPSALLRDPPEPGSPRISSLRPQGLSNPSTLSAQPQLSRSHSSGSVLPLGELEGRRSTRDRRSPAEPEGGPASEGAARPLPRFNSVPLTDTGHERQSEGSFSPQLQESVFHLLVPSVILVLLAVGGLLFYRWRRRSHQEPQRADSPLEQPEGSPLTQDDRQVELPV
# Target: c-FMS on MDA-MB-231 cells (human (endogenous in MDA-MB-231)) (UniProt P07333)
# Test: flow cytometry on cells; competition on MDA-MB-231 cells: 1 μM labelled variant 5.6 with 5 μM M-CSFWT or 10 μM cRGD, separately or together, integrin binding buffer + 1% BSA, 4 °C, 2 h; only the binder purified
substance,measurement,value
wild-type M-CSF (M-CSFWT) (from UniProt P09603) (ligand),binding,binds
